The results in this text go back to the supplement of paper PMC9233669.

One data set relates to biotinyl-Val-oxazolone. Description: self-aminoacylation, catalytic enhancement (BVO) (fold over background); higher = more active; k-Seq, kA / k0A0; sequences stand for … in GGGAAUGGAUCCACAUCUACGAAUUC…UUCACUGCAGACUUGACGAAGCUG
The essentials:
(§1)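 Each biotinyl-aminoacyl-oxazolone, at 2–1250 μM, was incubated with mutagenized RNA pools (0.43 μM) carrying a 21-nt variable region. The 50 μL reactions contained HEPES/NaCl/KCl/MgCl2/CaCl2 buffer with 5% acetonitrile at pH 6.9–7.0 and ran for 90 minutes at room temperature. After streptavidin capture, RNA was measured by qPCR in triplicate and by Illumina sequencing, and catalytic enhancement was calculated as median kA over the uncatalyzed rate from a pseudo-first-order fit of per-sequence fraction reacted.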

A further data set concerns biotinyl-Phe-oxazolone. The data set is described as follows: self-aminoacylation, catalytic enhancement (BFO) (fold over background); higher = more active; k-Seq, kA / k0A0; sequences stand for … in GGGAAUGGAUCCACAUCUACGAAUUC…UUCACUGCAGACUUGACGAAGCUG
Put shortly: as §1

The subject of a further data set is biotinyl-Ile-oxazolone. The data set is described as follows: self-aminoacylation, catalytic enhancement (BIO) (fold over background); higher = more active; k-Seq, kA / k0A0; sequences stand for … in GGGAAUGGAUCCACAUCUACGAAUUC…UUCACUGCAGACUUGACGAAGCUG
The essentials: as §1

The subject of a further data set is biotinyl-Met-oxazolone. The data set is described as follows: self-aminoacylation, catalytic enhancement (BMO) (fold over background); higher = more active; k-Seq, kA / k0A0; sequences stand for … in GGGAAUGGAUCCACAUCUACGAAUUC…UUCACUGCAGACUUGACGAAGCUG
Put shortly: as §1

For a further data set, the system named is biotinyl-Trp-oxazolone. Description: self-aminoacylation, catalytic enhancement (BWO) (fold over background); higher = more active; k-Seq, kA / k0A0; sequences stand for … in GGGAAUGGAUCCACAUCUACGAAUUC…UUCACUGCAGACUUGACGAAGCUG
The essentials: as §1

The subject of a further data set is biotinyl-Leu-oxazolone. The data set is described as follows: self-aminoacylation, catalytic enhancement (BLO) (fold over background); higher = more active; k-Seq, kA / k0A0; sequences stand for … in GGGAAUGGAUCCACAUCUACGAAUUC…UUCACUGCAGACUUGACGAAGCUG
The essentials: as §1

Variants at the floor of the assay are shown more often than the library holds them.

“CCACACUUCAAGCAAUAGGUA [Fam1B.1 aminoacylation ribozyme variant]”: the self-aminoacylation in the data set with biotinyl-Val-oxazolone was found to be 0.84; in the data set on biotinyl-Phe-oxazolone, 1.05; in the data set with biotinyl-Ile-oxazolone it was 0.903; in the data set on biotinyl-Met-oxazolone it was 0.652; with biotinyl-Trp-oxazolone, 0.552; with biotinyl-Leu-oxazolone, 0.781.

Take “CCACACUUCAAGCAAUGAGUC [Fam1B.1 aminoacylation ribozyme variant]”: the self-aminoacylation worked out at 0.568 in the data set with biotinyl-Val-oxazolone; 1.35 in the data set on biotinyl-Phe-oxazolone; 0.576 in the data set on biotinyl-Ile-oxazolone; 0.484 with biotinyl-Met-oxazolone; 0.519 in the data set with biotinyl-Trp-oxazolone; 0.564 in the data set with biotinyl-Leu-oxazolone.

As for “AUUACCCUUGUCAUCGAUUGA [Fam2.1 aminoacylation ribozyme variant]”, the self-aminoacylation in the data set with biotinyl-Val-oxazolone stood at 0.907; in the data set with biotinyl-Phe-oxazolone, 0.757; in the data set with biotinyl-Ile-oxazolone it was 0.766; in the data set with biotinyl-Met-oxazolone, 0.796; in the data set on biotinyl-Trp-oxazolone, 0.838; in the data set on biotinyl-Leu-oxazolone it was 0.778.

Turning to “AUUCACGUAGGUCAUCGGGCG [Fam2.2 aminoacylation ribozyme variant]”, the self-aminoacylation in the data set with biotinyl-Val-oxazolone stood at 2.56; in the data set with biotinyl-Phe-oxazolone, 5.97; in the data set with biotinyl-Ile-oxazolone it was 2.07; in the data set on biotinyl-Met-oxazolone it was 2.41; with biotinyl-Trp-oxazolone, 1.21; in the data set with biotinyl-Leu-oxazolone it was 2.57.

In the case of “AAGAUUGAUAAUAGUCGCAAG [Fam3.1 aminoacylation ribozyme variant]”, the self-aminoacylation with biotinyl-Val-oxazolone amounted to 1.1; in the data set on biotinyl-Phe-oxazolone, 1.12; in the data set on biotinyl-Ile-oxazolone, 1.21; in the data set on biotinyl-Met-oxazolone, 1.66; with biotinyl-Trp-oxazolone, 2.33; in the data set with biotinyl-Leu-oxazolone it was 1.1.

On to “CUAGGUCAAACAAUCGGUCUG [Fam1A.1 aminoacylation ribozyme variant]”, for which the self-aminoacylation in the data set on biotinyl-Val-oxazolone is 0.865; with biotinyl-Phe-oxazolone, 1.3; in the data set with biotinyl-Ile-oxazolone, 1.01; in the data set with biotinyl-Met-oxazolone it was 0.966; with biotinyl-Trp-oxazolone, 1.16; in the data set with biotinyl-Leu-oxazolone it was 0.786.

Regarding “CAGUUUGCUAAUGGUCGCAAG [Fam3.1 aminoacylation ribozyme variant]”, the self-aminoacylation with biotinyl-Val-oxazolone was 1.29; in the data set on biotinyl-Phe-oxazolone, 1.5; in the data set with biotinyl-Ile-oxazolone it was 1.97; in the data set on biotinyl-Met-oxazolone, 1.59; in the data set on biotinyl-Trp-oxazolone, 1.63; with biotinyl-Leu-oxazolone it was 1.96.

For the sequence “AUUCUCCUAGAUCAUCGGGUG [Fam2.2 aminoacylation ribozyme variant]”, the self-aminoacylation in the data set with biotinyl-Val-oxazolone came to 2.68; in the data set with biotinyl-Phe-oxazolone, 34.7; in the data set with biotinyl-Ile-oxazolone it was 3.28; with biotinyl-Met-oxazolone, 4.32; in the data set with biotinyl-Trp-oxazolone, 4.66; with biotinyl-Leu-oxazolone it was 5.3.

With “CUACUCCAAACAAUCGGGCUG [Fam1A.1 aminoacylation ribozyme variant]”, the self-aminoacylation with biotinyl-Val-oxazolone is 1.01; in the data set on biotinyl-Phe-oxazolone, 1.02; with biotinyl-Ile-oxazolone, 1.36; with biotinyl-Met-oxazolone, 1.61; in the data set with biotinyl-Trp-oxazolone, 1.14; in the data set with biotinyl-Leu-oxazolone, 1.29.

Turning to “AUUCACCCAGGUCAACGGGUG [Fam2.2 aminoacylation ribozyme variant]”, the self-aminoacylation in the data set on biotinyl-Val-oxazolone stood at 2.53; in the data set with biotinyl-Phe-oxazolone it was 19.7; with biotinyl-Ile-oxazolone it was 1.96; in the data set with biotinyl-Met-oxazolone it was 3.24; in the data set with biotinyl-Trp-oxazolone, 3.81; in the data set with biotinyl-Leu-oxazolone it was 4.29.

“GUACUUCAAACACUCGGUCUG [Fam1A.1 aminoacylation ribozyme variant]”: the self-aminoacylation was 1.3 with biotinyl-Val-oxazolone; 5.9 with biotinyl-Phe-oxazolone; 1.5 in the data set on biotinyl-Ile-oxazolone; 1.31 in the data set on biotinyl-Met-oxazolone; 1.91 in the data set with biotinyl-Trp-oxazolone; 1.64 in the data set on biotinyl-Leu-oxazolone.

Turning to “AUUAUCCUGGUGAUCGAGUGA [Fam2.1 aminoacylation ribozyme variant]”, the self-aminoacylation with biotinyl-Val-oxazolone was 3.46; in the data set on biotinyl-Phe-oxazolone, 45.5; with biotinyl-Ile-oxazolone, 3.55; with biotinyl-Met-oxazolone, 7.34; in the data set with biotinyl-Trp-oxazolone it was 9.06; in the data set on biotinyl-Leu-oxazolone, 7.98.

Turning to “CUACUUCAAACAAUAAGUCUG [Fam1A.1 aminoacylation ribozyme variant]”, the self-aminoacylation in the data set on biotinyl-Val-oxazolone was determined as 0.755; in the data set on biotinyl-Phe-oxazolone, 0.951; with biotinyl-Ile-oxazolone it was 0.716; with biotinyl-Met-oxazolone it was 0.579; in the data set on biotinyl-Trp-oxazolone it was 0.579; in the data set on biotinyl-Leu-oxazolone, 0.695.
